## Results from one PubChem assay

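Genome-wide siRNA knockdown in TC32 Ewing sarcoma cells, comparing luciferase light from an NR0B1-promoter reporter with a CMV-promoter reporter 48 hours after transfection.
Each siRNA was applied at 20 nM.
A z-score of the log NR0B1-over-CMV signal, less the median of siRNAs with the same seed; more negative means a stronger specific loss of the NR0B1 reporter.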

This is part of the screen; most of the strongest results are not listed here.
Sequences are the guide (antisense) strand, without overhang.

siRNA	target gene	seed-corrected z-score
UUGGGUGAAUAGAUAUUGC	BCL6	-0.6054
AUAUGGUAAAUAGUGUCUG	ART4	3.043
AAAAGUGUUCCCAUUUUCU	C4orf32	2.076
UUUGGUUCCAUUCAUGAGC	N4BP2L1	-0.796
UCAGCUACUACCAGGGUCU	ADAMTS7	-0.8403
AAAGUGGGUAAGGUCGCCG	BORCS6	-0.1007
UUGGGCAUUUCAAAUACGC	VAPA	-0.4068
UACCGUGUAGUGAAGCUGG	PCDH10	0.6272
AAAUUGUCCCGAUCAAGGG	KIFAP3	-0.05421
ACUGGGAUGGACGAAGUCC	C6orf132	-1.138
UCUAUGUAGAUGAUGUGCC	MMEL1	-0.1458
UUGUUAGUCAGUGCUUGCC	CP	0.9092
UAGUCAGUCAGUUCCCGCC	POTEKP	0.2518
AUACCUGUACUAUCUAUCG	SP3	0.109
UAGGUAGAGCCUGUAGUGG	FAM65A	0.4773
UUUAUCGCAACAGCAAGUC	MMS22L	-0.08939
UACACUUUGGUAUUGUAUG	LOXL2	0.2638
UCAGGUACCAGGUUUCGUU	DHCR7	-0.5539
UUCGUCAAGAUUCCGAUGG	MX1	-0.6285
AGUAGACUAAGAAUUGCUG	FGG	-0.5455
UUCGGUAGAAGUUCAGCAC	KCND1	-0.1956
AACAUAGGAAUUUUCAGCG	AP3D1	0.5915
UAUACUCCAUAUUAGAGGC	CRISPLD1	0.001789
AAACUCAUGAUCCCGAAUG	PTPRO	-0.1505
UAGGGAAACGCUCACAUGC	NMRK2	0.5327
UACUUUAGCAGUAGAGUCC	TBC1D8B	-1.049
UGUCCAUUAACAUUGGAAG	VHLL	0.8564
UAAACGUGACCCUAUGUAG	LOC390998	-1.002
UAAGUGGUAUUAACAAGUC	ASB3	0.2932
AGAGAAACAAGACUCGUUC	SNX21	-0.8396
UUGCAAUUUGGGCUAGUGC	GLIPR1	-0.5924
UACGGAAUAUGCAUACUUC	HFM1	-1.232
UAUCCUGUUAGGUCCCAGC	ATP10B	0.1838
UUCGCUUCCGAUUAAAGAC	ZNF813	0.3417
UACAAUACUCAUGUUAUCU	PPM1B	-0.881
UUUAGAGAAAGUGUAGAUG	TRIM6	-0.06169
UUGGGUUAUCUGCUUUUCC	CIB2	1.094
UUCUGGACAAUUCUCCACU	RPAIN	0.5326
UGAGGGUUUAGUGCGUUCC	FXR2	-0.4252
UUUCGUAAUACUCCUCGGG	JMY	0.2566
UACGGUACAUGAGCAGUAG	SDC4	-0.5734
UGAGUCAAAGGAGCUGUCU	TBC1D16	0.4336
UAAGGGUAAAAGCACAGGC	FAM186B	-0.5099
AGAGAACUCAGAACAGUAG	CLEC19A	0.6002
UCUGGAGUCACCAACACUG	PSRC1	-1.548
UGUUUCUCAAGUAGACACC	LSS	-0.9877
UACAUCAUAUUUCUUGAUC	ANKRD7	-0.5403
UAGGGUGAUCCAUCGUAGC	HSD3B7	1.845
UCUGUUUAAGUAGUAAUCC	ECE2	0.4457
AUCCGGACCAUUACCUCCA	CC2D1A	0.2571
UAGGUAACCUGGUCACUGC	SPINK8	-0.1008
UUUAGUUUGUUUAAGUCAU	LSMEM1	0.5559
UUAGUUCGAAGCAUGUAGG	ARSK	0.2741
UCAUCGUCCAUAUCUAGGG	UTP3	-0.05481
UCUACUAAAACCCUUUUCC	DNAL4	0.2993
UUCGUCACAUGGAUGGUCC	CEP164	1.34
UGGUUGAUCACAGUCUUCC	ZUFSP	2.298
UUAGGUGUUACAGUAGAGG	OR8I2	-0.05095
AAAACUGCUCUGAUAGUUC	LONP2	-0.8396
UCAAUGAGCUGCGUGGUCU	SIGLEC1	0.2715
UCCGGUCAAAGAAGGAGGC	NACC1	0.6331
UAUUCUCCACUGUAGGAUC	RHEBL1	1.133
UAAGGCAUUCGGUCUGAGU	ZNF852	0.7128
UCUGGAUCCAUGACGAUGG	KDR	0.2739
UAUGCGACUUGAAUCUCCC	PABPC1L2B	0.4535
UCACCGAUGAGUUACAGGC	KCTD16	0.3955
UUUAGAACUUUAUAGGUGG	CAPRIN1	-0.203
AUAGAUACACCAACCAUGG	OR51Q1	1.218
UGAGGAAUUAUACGGCAGG	CRYGA	1.487
AACCUGAGAAACAUACUGC	TLL2	0.239

4 of the entries, repeated:

With UAAGUGGUAUUAACAAGUC against ASB3 the assay gave seed-corrected z-score 0.2932.
With UACUUUAGCAGUAGAGUCC against TBC1D8B the assay gave seed-corrected z-score -1.049.
With UUAGUUCGAAGCAUGUAGG against ARSK the assay gave seed-corrected z-score 0.2741.
With AAAGUGGGUAAGGUCGCCG against BORCS6 the assay gave seed-corrected z-score -0.1007.

The results are deposited in PubChem (AID1159506; NCATS, 2015).